In PubChem BioAssay AID504444 (National Center for Advancing Translational Sciences (NCATS), 2011):
The whole screen tested about 360,000 compounds, of which about 7,500 (2.1%) were called active. The shares of active, inactive and inconclusive entries below differ from those in the screen. The call rests on the fitted dose curve; in most records, active means well fitted inhibition curve with a large enough effect; inconclusive means small, poorly fitted or top-dose-only effect, or effect the other way; inactive means flat fitted curve, though single readings scatter. Where the call is inconclusive, the potency comes from a doubtful curve fit.
Potency means the concentration at half of the fitted maximal effect.

Test: Nrf2 qHTS screen for inhibitors; further: nearly all actives have a fitted effect of over 60% in size
Details: A549 ARE-Fluc reporter, luciferase luminescence, 18-24 h; series mostly up to 46 µM
How it was run: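 Nrf2 activity is the BugLite luminescence, read 15 min after reagent at room temperature, following CellTiter-Fluor cytotoxicity readout (30 min, 37C). Compound titrations were applied for 18-24 h to 5000 A549 ARE_Fluc cells/well in 5% FBS OPTI-MEM.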
With `c1ccc2c(c1)[nH]c1cnccc12` the Potency was “inactive”.
With `O=C(CF)N(O)c1ccc(C=Cc2ccccc2)cc1` the Potency was “inactive”.
With `COC(=O)C1=C(c2ccc(F)cc2OCc2ccccc2)C[C@@H]2CC[C@H]1N2C(=O)NCc1ccc(C(C)(C)C)cc1` the Potency was inconclusive: 29.1 µM [falling, single point].
In the case of `O=P(Nc1ccccc1Cl)(c1ccccc1)c1nc2c(s1)CCCC2` (stereo unspecified), the Potency is reported as inconclusive: 6.51 µM [falling, single point].
For `O=C(C[N+]12CCC(CC1)C(OC(=O)c1ccccc1)C2)c1ccc([N+](=O)[O-])cc1` (stereo unspecified), the Potency was inconclusive: 0.461 µM [falling, partial curve, poor fit].
For `CC(Cc1ccccc1)NC(=O)c1ccc(N)cc1` (stereo unspecified), the Potency was inconclusive: 5.8 µM [activator, partial curve].
For `O=S1(=O)N(CCN2CC=C(c3c[nH]c4cc(F)ccc34)CC2)c2cccc3c2N1CCC3`, the Potency was inconclusive: 29.1 µM [falling, single point].
For `CN(C)C(=O)Oc1ccc2ccccc2c1Cl`, the Potency was inconclusive: 18.4 µM [activator, single point].
For `COC(=O)C1=C(c2ccc(F)cc2OCc2ccccc2)C[C@@H]2CC[C@H]1N2C(=O)NCc1ccc2c(c1)OCO2`, the Potency was active: 18.4 µM.
In the case of `COc1ccc(CCn2c(O)c(C=Nc3ccc(F)cc3)c(=O)[nH]c2=O)cc1OC`, the Potency is reported as inconclusive: 16.4 µM [falling, partial curve, poor fit].
For `CC1=CC(C)CC(C)OC(=O)CC(c2ccc(O)cc2)NC(=O)C(Cc2c(Br)[nH]c3ccccc23)N(C)C(=O)C(C)NC(=O)C(C)C1` (stereo unspecified), the Potency was active: 0.58 µM.
In the case of `O=Cc1cn(Cc2ccc(F)cc2)c2ccccc12`, the Potency is reported as inconclusive: 18.4 µM [falling, single point].
In the case of `O=c1cccc2n1CC1CC2CN(Cc2cccc(Cl)c2Cl)C1` (stereo unspecified), the Potency is reported as active: 20.6 µM.
With `CC(=NCCN1CCOCC1)c1c(O)n(-c2ccccc2C)c(=O)[nH]c1=O` the Potency was inconclusive: 0.517 µM [falling, full curve, poor fit].
With `COc1ccc(Br)cc1CNCCc1cccc(Cl)c1` the Potency was inconclusive: 29.1 µM [falling, single point].
For `O=C(C(=O)N1CCOCC1)c1cn(Cc2c(F)cccc2Cl)c2ccccc12`, the Potency was “inactive”.
With `CC(=O)c1ccc(NC(=O)CSc2nc(=O)cc(N)n2-c2ccccc2)cc1` the Potency was inconclusive: 16.4 µM [activator, single point].
In the case of `C=CCN1C(=O)c2ccccc2Sc2ccc(C(=O)N3CCC4(CC3)OCCO4)cc21`, the Potency is reported as “inactive”.
In the case of `Oc1ccc(Br)cc1CN1CCN(c2ccccc2)CC1`, the Potency is reported as “inactive”.
In the case of `COc1cc(C)c(C(=O)CC(=O)c2c(C)cc(OC)cc2C)c(C)c1`, the Potency is reported as inconclusive: 32.6 µM [falling, single point].
For `CCOc1cccc(CNCCc2c(C)[nH]c3ccc(OC(F)(F)F)cc23)c1O`, the Potency was “inactive”.
With `Nc1c(C(=O)NCc2ccco2)c2nc3ccccc3nc2n1Cc1ccccc1` the Potency was “inactive”.
In the case of `Cc1oc(-c2ccc(Cl)cc2)nc1CN1C(=O)CN=C(c2ccccc2)c2ccccc21`, the Potency is reported as “inactive”.
For `O=[N+]([O-])c1ccc(O)c([N+](=O)[O-])c1`, the Potency was inconclusive: 23.1 µM [falling, single point].
For `CCOc1ccc(CNC(=O)c2cccc(Nc3nc4ccccc4n4nnnc34)c2)cc1OC`, the Potency was active: 7.31 µM.
For `Cc1cccc(NC(=O)Cn2cc(C(=O)c3ccccc3)c3ccccc32)c1C`, the Potency was inconclusive: 9.2 µM [falling, partial curve, poor fit].
For `COc1cc(C(=O)O)cc(OC)c1OC`, the Potency was “inactive”.
In the case of `NC(=O)Nc1cccc(C(F)(F)F)c1`, the Potency is reported as inconclusive: 0.651 µM [falling, full curve].
In the case of `O=C(O)C(Br)CBr` (stereo unspecified), the Potency is reported as inconclusive: 20.6 µM [activator, single point].
For `CCOC(=O)C(O)(c1ccc(NC(=S)NC(=O)c2ccc(Cl)cc2Cl)c(C)c1)C(F)(F)F` (stereo unspecified), the Potency was active: 14.6 µM.
For `Cc1cc(C)c(-n2c(O)c(/C=N/NC(=O)c3ccncc3)c(=O)[nH]c2=O)c(C)c1`, the Potency was “inactive”.
In the case of `CCN(C(=O)CN1CC=C(c2ccccc2)CC1)c1c(N)n(Cc2ccccc2)c(=O)[nH]c1=O`, the Potency is reported as inconclusive: 16.4 µM [activator, partial curve].
In the case of `Cc1ccc(NC(=O)COc2ccc(-c3nn(C)c(=O)c4ccccc34)cc2)cc1`, the Potency is reported as inconclusive: 29.1 µM [falling, single point].
With `Cc1ccccc1N1CCN(C2CCCN(C(=O)Cc3c(C)noc3C)C2)CC1` (stereo unspecified) the Potency was inconclusive: 29.1 µM [falling, single point].
With `CCC(=NCc1cc(OC)cc(OC)c1)c1c(O)[nH]c(=O)[nH]c1=O` the Potency was inconclusive: 23.1 µM [falling, single point].
With `CCn1nc(-c2cccs2)nc2c(=O)n(C)c(=O)nc1-2` the Potency was active: 5.17 µM.
With `Cc1ccc(F)cc1NC(=O)c1ccc(Cn2nc(N3CCN(c4ccccc4)CC3)ccc2=O)o1` the Potency was active: 7.31 µM.
For `O=C1NC(=O)N(Cc2ccc(F)cc2)C(=O)/C1=C\c1ccc(N2CCCC2)cc1`, the Potency was “inactive”.
With `COc1ccc(N(CC(=O)Nc2cccc(SC)c2)S(C)(=O)=O)cc1Cl` the Potency was inconclusive: 32.6 µM [falling, single point].
For `CC(C)N(Cc1ccco1)/N=C/c1c(O)n(Cc2ccccc2)c(=O)[nH]c1=O`, the Potency was inconclusive: 18.4 µM [falling, single point].
In the case of `Cn1cccc1C1CCCN1CC(=O)Nc1ccc(C#N)c(Cl)c1` (stereo unspecified), the Potency is reported as inconclusive: 16.4 µM [falling, single point].
With `Cc1c(C=O)c2ccccc2n1Cc1ccc(F)cc1` the Potency was “inactive”.
With `O=C(CSc1ccccn1)Nc1cccc2ccccc12` the Potency was inconclusive: 6.51 µM [activator, single point].
For `CC(=O)c1ccc(N2CCN(S(=O)(=O)c3cc(-c4onc(C)c4C)ccc3C)CC2)cc1`, the Potency was active: 9.2 µM.
For `CC(C)OC(=O)c1cc(C(=O)c2cc(Cl)ccc2O)coc1=N`, the Potency was inconclusive: 8.2 µM [activator, partial curve].
In the case of `CCCCn1c(NS(=O)(=O)c2ccccc2)c(C(=O)OCC)c2nc3ccccc3nc21`, the Potency is reported as inconclusive: 14.6 µM [falling, single point].
